Test results reported in patent US20100291097A1.
No constants are given. Whether binding was seen depends on the method and setting. Some binding calls cover weakened binding; strength is not graded here.

Assays:
[1] = biological target: Biotinylated complete Aβ1-42 peptide (human sequence, Bachem) (human); experiment: peptide library ELISA, positive control
[2] = biological target: Aβ1-40 peptide, biotinylated (Anaspec); experiment: ELISA on longer biotinylated Aβ peptides
[3] = biological target: Aβ1-42 peptide, biotinylated (Anaspec); experiment: ELISA on longer biotinylated Aβ peptides
[4] = biological target: Biotinylated complete Aβ1-42 peptide (human sequence, Bachem) (human); experiment: ELISA on longer biotinylated Aβ peptides
[5] = biological target: Monomer-enriched preparation of the Aβ1-42 peptide (W. M. Keck Facility peptide); experiment: ELISA on SEC fractions
[6] = biological target: Oligomer-enriched preparation of the Aβ1-42 peptide (W. M. Keck Facility peptide); experiment: ELISA on SEC fractions

Measured: binding

B1: ACI-11-Ab-9 monoclonal antibody (antibody, V domains shown)
VH: QVQLQQSDAELVKPGASVKISCKVSGYTFTDHTIHWMKQRPEQGLEWIGYIYPRDGSTKYNEKFKGKATLTADKSSSTAYMQLNSLTSEDSAVYFCARDYGYAFDYWGQGTTLTVSS
VL: QAVVTQESALTTSPGGTVILTCRSSTGAVTTSNYANWVQEKPDHLFTGLIGGTSNRAPGVPVRFSGSLIGDKAALTITGAQTEDDAMYFCALWYSTHYVFGGGTKVTVL
binds: [1] | [2] | [3] | [4]

B2: ACI-12-Ab-11 monoclonal antibody (antibody, V domains shown)
VH: B1 VH
VL: B1 VL
binds: all assays above
